Our source for the binding values is paper PMC10147604.

Sequences of proteins named here, by UniProt entry; tags and fusion partners are left off.
UniProt Q93009: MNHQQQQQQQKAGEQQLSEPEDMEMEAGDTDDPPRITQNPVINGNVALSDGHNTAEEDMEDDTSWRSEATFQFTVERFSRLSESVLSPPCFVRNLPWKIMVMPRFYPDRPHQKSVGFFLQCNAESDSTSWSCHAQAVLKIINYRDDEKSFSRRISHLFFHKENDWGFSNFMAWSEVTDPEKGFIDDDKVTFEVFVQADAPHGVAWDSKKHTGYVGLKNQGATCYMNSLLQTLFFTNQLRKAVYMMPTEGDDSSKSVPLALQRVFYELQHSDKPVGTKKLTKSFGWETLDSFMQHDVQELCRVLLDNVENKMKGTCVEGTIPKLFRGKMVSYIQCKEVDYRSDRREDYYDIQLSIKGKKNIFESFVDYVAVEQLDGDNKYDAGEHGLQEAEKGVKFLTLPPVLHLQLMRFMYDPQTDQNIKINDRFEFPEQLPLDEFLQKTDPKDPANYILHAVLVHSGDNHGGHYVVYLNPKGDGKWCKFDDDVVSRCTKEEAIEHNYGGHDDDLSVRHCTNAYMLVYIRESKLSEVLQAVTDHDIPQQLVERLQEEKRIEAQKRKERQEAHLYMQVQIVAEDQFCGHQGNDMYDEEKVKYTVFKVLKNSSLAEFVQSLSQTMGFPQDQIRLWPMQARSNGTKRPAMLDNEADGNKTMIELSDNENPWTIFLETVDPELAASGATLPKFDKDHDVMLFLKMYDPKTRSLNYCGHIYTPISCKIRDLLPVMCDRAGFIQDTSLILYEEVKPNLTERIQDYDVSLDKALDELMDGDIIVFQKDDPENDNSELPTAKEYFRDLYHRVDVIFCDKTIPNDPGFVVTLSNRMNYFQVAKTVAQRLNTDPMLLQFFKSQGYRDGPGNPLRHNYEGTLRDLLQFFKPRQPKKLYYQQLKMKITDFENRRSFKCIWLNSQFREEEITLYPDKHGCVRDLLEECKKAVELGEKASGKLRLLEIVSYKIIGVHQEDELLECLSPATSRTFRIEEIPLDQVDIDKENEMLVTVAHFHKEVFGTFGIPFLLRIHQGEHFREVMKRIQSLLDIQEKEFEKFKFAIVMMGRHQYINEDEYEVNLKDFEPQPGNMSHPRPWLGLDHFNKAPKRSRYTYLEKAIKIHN

The target in this assay is T1, N-terminally HA-tagged NGN3 (HA-NGN3^WT) (UniProt P70661).
T1 sequence: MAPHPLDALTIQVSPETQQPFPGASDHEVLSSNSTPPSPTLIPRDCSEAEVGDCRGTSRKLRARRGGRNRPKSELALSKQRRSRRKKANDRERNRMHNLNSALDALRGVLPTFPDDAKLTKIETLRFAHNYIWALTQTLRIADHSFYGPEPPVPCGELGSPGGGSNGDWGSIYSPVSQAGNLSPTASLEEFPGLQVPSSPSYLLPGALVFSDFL
The experiment in a line: affinity purification with mass spectrometry; anti-HA magnetic beads on lysates of HEK293A cells transfected with pcDNA3-HA-NGN3 (duplicates) or empty pcDNA3; NP-40 lysis buffer; LC-MS/MS of gel sections.

These are yes or no findings as the source states them, for the method shown. In cells and extracts the contact can be indirect. Here binding means that the protein was enriched with, or labelled near, the bait; the list need not be complete. Tags and fused reporters may be left off the sequences shown.

“endogenous USP7 (from UniProt Q93009 1-1102) (enzyme)”: the binding entry is “binds”.
